Data from patent US20020132223.
Construct, isoform or probe ends are uncertain for at least one entry.

Experiments:
FXR/RXR heterodimer = experiment: EMSA; conditions: ligand-dependent GST-GRIP1 recruitment on probe; 10 mM Tris pH 8, 50 mM KCl, 6% glycerol, 0.05% NP-40, 1 mM DTT, poly dI-dC, RT; protein translated in vitro
[1] = tested on: FXR/RXRm heterodimer RXRalpha Asp322Pro (also printed Asp332Pro); experiment: EMSA; conditions: RXRm heterodimer; GST-GRIP1 recruitment; same buffer, RT; protein translated in vitro; protein details: FXR + mutant human RXRalpha
[2] = tested on: FXR/RXR heterodimer (cells); experiment: activity in cells; conditions: luciferase reporter activated by CDCA; antagonised by clotrimazole, Compound A and Compound B; protein in cells; only the site is given

Row | Sequence | binding result (FXR/RXR heterodimer) | binding result [1] | activity on this sequence [2]
1 | AGCTCGATGGACAAGTGCATTGAACCCTTGAAGCTT (double strand) [hsp27 EcRE probe] | binds | binds | –
2 | AGCTCGATGGACAAGTGCATTGAACCCTTGAAGCTT (double strand) [hsp27 EcRE x6 reporter] | – | – | active
